Laboratory results from publication PMC7286819.
No constants are given. Whether binding was seen depends on the method and setting. Binding seen in cells or lysates may run through a third protein. Some binding calls cover weakened binding; strength is not graded here. For some of these results: Where a sequence is shown, tags or fusion partners need not be part of it.

The chains behind the UniProt entries cited, without tags or fusion partners. Where a name states a change or a piece, a line headed by the entry shows the natural chain unless it says otherwise. Residues count along the entry.
UniProt Q9NRC8: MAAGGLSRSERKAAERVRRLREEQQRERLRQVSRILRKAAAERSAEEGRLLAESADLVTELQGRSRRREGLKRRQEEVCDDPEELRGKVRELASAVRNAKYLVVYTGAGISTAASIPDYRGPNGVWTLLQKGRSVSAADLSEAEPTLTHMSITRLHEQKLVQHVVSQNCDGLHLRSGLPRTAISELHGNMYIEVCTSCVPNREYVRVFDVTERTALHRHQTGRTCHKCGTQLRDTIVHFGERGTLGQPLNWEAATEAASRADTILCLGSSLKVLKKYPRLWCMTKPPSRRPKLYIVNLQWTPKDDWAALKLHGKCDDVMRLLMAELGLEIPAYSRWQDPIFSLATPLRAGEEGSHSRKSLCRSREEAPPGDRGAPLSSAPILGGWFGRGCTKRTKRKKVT
GST-SIRT7 N terminus (1-89 aa): residues 1-89 of Q9NRC8
GST-SIRT7 C terminus (332-400 aa): residues 332-400 of Q9NRC8
UniProt Q00987: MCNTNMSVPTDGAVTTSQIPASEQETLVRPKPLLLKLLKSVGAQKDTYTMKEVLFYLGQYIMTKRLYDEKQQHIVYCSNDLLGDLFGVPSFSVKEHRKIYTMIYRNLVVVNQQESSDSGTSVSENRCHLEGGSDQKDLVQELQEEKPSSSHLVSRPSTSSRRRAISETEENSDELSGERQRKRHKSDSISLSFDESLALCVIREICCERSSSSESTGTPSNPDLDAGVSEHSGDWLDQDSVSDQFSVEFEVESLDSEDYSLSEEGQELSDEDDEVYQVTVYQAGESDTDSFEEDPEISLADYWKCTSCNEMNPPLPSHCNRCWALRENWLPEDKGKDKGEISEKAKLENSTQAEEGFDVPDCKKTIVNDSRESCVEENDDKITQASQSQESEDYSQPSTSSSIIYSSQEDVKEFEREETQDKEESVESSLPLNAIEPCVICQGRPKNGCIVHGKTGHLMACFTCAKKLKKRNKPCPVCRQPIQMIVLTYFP

Columns and labels:
[1] = biological target: Sirtuin 7 (SIRT7), endogenous (human (endogenous in HCT116 and U2OS)) (UniProt Q9NRC8); experiment: co-IP; endogenous proteins, U2OS cells, SIRT7 and PCAF antibodies (Fig. S4B, C)
[2] = biological target: FLAG-SIRT7 (UniProt Q9NRC8); experiment: co-IP; HCT116 transfected with FLAG-tagged plasmids; lysates immunoprecipitated with FLAG-conjugated M2 beads; immunoblot; for PCAF-MDM2 cells treated with 10 uM MG132, with or without SIRT7 knock-down (shSIRT7, si-SIRT7) and glucose deprivation for 12 h
[3] = biological target: Sirtuin 7 (SIRT7), endogenous (human (endogenous in HCT116 and U2OS)) (UniProt Q9NRC8); experiment: co-IP; endogenous proteins, HCT116 lysates; immunoprecipitation with anti-IgG, anti-SIRT7 or anti-PCAF antibody, protein G/A-agarose; lysis buffer 1% NP-40, 20 mM Tris-HCl pH 8.0, 137 mM NaCl, 10% glycerol, 2 mM EDTA; immunoblot
[4] = biological target: Murine double minute (MDM2), endogenous (human (endogenous in HCT116 and U2OS)) (UniProt Q00987); experiment: co-IP; HCT116 transfected with SIRT7 plasmids (WT, SA/HY) or empty vector, 10 uM MG132 for 8 h; lysates immunoprecipitated with anti-MDM2 antibody; immunoblot
[5] = biological target: GST-SIRT7 N terminus (1-89 aa) (UniProt Q9NRC8); experiment: pull-down; GST-fusion proteins on glutathione-Sepharose 4B beads incubated with lysates of HCT116 cells transfected with FLAG-PCAF or FLAG-SIRT7 at 4 C overnight; washed with TEN buffer (0.5% NP-40, 20 mM Tris pH 7.4, 0.1 mM EDTA, 300 mM NaCl); immunoblot; only the target purified
[6] = biological target: GST-SIRT7 C terminus (332-400 aa) (UniProt Q9NRC8); experiment: as above
[7] = biological target: T1, GST-PCAF N terminus (1-351 aa) (UniProt Q92831); experiment: as above
T1 sequence: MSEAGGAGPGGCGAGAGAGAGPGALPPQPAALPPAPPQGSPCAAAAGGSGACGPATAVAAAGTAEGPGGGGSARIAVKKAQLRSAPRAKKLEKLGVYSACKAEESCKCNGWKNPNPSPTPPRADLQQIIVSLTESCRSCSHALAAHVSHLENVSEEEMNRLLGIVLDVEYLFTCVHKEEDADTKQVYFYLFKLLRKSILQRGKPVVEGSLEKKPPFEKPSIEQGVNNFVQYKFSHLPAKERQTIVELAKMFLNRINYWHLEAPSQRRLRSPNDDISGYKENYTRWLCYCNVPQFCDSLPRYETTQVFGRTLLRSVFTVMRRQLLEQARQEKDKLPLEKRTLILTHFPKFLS

[8] = biological target: T2, GST-PCAF bromo domain (652-833 aa) (UniProt Q92831); experiment: as above
T2 sequence: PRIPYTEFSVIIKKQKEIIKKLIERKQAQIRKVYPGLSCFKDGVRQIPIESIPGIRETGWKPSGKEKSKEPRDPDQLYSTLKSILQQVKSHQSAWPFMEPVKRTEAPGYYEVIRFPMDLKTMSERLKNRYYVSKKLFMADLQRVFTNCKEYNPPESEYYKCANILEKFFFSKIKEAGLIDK

[9] = biological target: p300/CBP-associated factor (PCAF), endogenous (human (endogenous in HCT116 and U2OS)) (UniProt Q92831); experiment: co-IP; HCT116 transfected with the indicated plasmids, with or without glucose deprivation for 12 h; lysates immunoprecipitated with anti-PCAF antibody; immunoblot
[10] = biological target: T3, FLAG-PCAF (K720R) (UniProt Q92831); experiment: co-IP; U2OS cells, PCAF (WT) or mutants (Fig. S6E); legend not shown
T3 sequence: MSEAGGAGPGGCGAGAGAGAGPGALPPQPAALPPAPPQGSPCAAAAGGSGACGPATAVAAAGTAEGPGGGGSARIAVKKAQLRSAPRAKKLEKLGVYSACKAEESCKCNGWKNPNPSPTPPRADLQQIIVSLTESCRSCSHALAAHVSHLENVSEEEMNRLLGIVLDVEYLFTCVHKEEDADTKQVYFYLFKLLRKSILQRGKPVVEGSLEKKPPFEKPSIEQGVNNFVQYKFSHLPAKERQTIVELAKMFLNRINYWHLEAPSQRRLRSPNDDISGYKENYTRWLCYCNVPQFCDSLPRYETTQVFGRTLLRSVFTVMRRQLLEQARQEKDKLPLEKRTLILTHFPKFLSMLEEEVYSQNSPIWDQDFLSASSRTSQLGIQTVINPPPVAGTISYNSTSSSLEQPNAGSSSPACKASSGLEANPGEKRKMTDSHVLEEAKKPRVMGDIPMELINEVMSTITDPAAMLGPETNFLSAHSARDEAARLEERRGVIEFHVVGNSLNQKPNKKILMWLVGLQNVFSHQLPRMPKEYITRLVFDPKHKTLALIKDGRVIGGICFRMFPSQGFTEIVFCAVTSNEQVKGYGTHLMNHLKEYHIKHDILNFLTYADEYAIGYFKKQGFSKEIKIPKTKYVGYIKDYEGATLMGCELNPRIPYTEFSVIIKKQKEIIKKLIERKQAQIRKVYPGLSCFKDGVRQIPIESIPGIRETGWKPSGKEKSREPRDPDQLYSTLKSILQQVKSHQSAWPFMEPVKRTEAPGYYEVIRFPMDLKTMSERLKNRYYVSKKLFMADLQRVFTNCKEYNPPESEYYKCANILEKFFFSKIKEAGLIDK

[11] = biological target: FLAG-PCAF (UniProt Q92831); experiment: as above
[12] = biological target: T3, FLAG-PCAF (K720R); experiment: co-IP; HCT116 transfected with FLAG-tagged plasmids; lysates immunoprecipitated with FLAG-conjugated M2 beads; immunoblot; for PCAF-MDM2 cells treated with 10 uM MG132, with or without SIRT7 knock-down (shSIRT7, si-SIRT7) and glucose deprivation for 12 h
[13] = biological target: FLAG-PCAF (UniProt Q92831); experiment: as above
[14] = biological target: p300/CBP-associated factor (PCAF), endogenous (human (endogenous in HCT116 and U2OS)) (UniProt Q92831); experiment: co-IP; endogenous proteins, U2OS cells, SIRT7 and PCAF antibodies (Fig. S4B, C)
[15] = biological target: p300/CBP-associated factor (PCAF), endogenous (human (endogenous in HCT116 and U2OS)) (UniProt Q92831); experiment: co-IP; endogenous proteins, HCT116 lysates; immunoprecipitation with anti-IgG, anti-SIRT7 or anti-PCAF antibody, protein G/A-agarose; lysis buffer 1% NP-40, 20 mM Tris-HCl pH 8.0, 137 mM NaCl, 10% glycerol, 2 mM EDTA; immunoblot

Measured: binding

p300/CBP-associated factor (PCAF), endogenous (from UniProt Q92831 1-832)
binds: [1] | [2] | [3] | [4]

FLAG-PCAF (from UniProt Q92831 1-832)
binds: [5] | [6]

FLAG-SIRT7 (from UniProt Q9NRC8 1-400)
binds: [7] | [8] | [9]

Murine double minute (MDM2), endogenous (from UniProt Q00987 1-491)
binds: [10] | [11] | [12] | [13]

Sirtuin 7 (SIRT7), endogenous (from UniProt Q9NRC8 1-400)
binds: [14] | [13] | [15]
